Source: patent US20250352497A1, “BIGUANIDE BASE COMPOSITIONS, BIGUANIDE BASE PHARMACEUTICAL COMPOSITIONS, AND THEIR PREPARATIONS AND USES” (ADA FORSYTH INSTITUTE, INC., priority 2022, published 2025)

Test system: model microbiome simulating human oral microbiome
Assay: pH of model microbiome (supernatant and saliva-derived biofilm) after treatment in the presence of 2% sucrose
Format: cell-based
Details: supernatant and biofilms, various concentrations
Procedure: Saliva samples were collected and pooled from 5 healthy volunteers as a model microbiome simulating human oral microbiome, and used to inoculate SHI medium containing different test compositions and controls.
1 mL pooled saliva sample was added to each well of a 24-well plate that had been pre-coated with sterilized, cell-free saliva. The plate was incubated at 37° C. for 16 h in microaerobic conditions (2% O2, 5% CO2, balanced with nitrogen) to allow biofilm formation. After incubation, planktonic portion was collected, optical density was measured at 600 nm and cells were pelleted for DNA isolation. Meanwhile, 1 mL of SHI medium was added to the biofilm portion of each well, biofilm cells were dispersed by scraping and vortex to break the cell aggregates. Optical density was measured at 600 nm and cells were collected for DNA isolation.
Supernatant and biofilms prepared with the model microbiome simulating human oral microbiome according to Example III were treated with embodiments of the CHX base composition (e.g., solution embodiments of the CHX base composition prepared according to Example I (the CHX base solutions); and MSN3 prepared according to Example II(B)(ii)). […]

With `CCCCCCCCCCCCCCCC[n+]1ccccc1` [CPC, cetylpyridinium chloride] the “pH of the treated microbiome” value was ≤ 5.5.
